We go through five molecules from US20240026461A1, “BCL10 MUTATIONS AS BIOMARKERS FOR TARGETED THERAPY IN B CELL LYMPHOMAS” (priority 2022, published 2024).

Positions count from the first letter of the chain named. Names may count otherwise. Results are given in words; binding and its absence hold for the method and conditions named. Binding seen in cells or lysates may run through a third protein. Some results given as binding are weak or reduced against the parent protein; the word gives no strength. Sequences can lack the tags named with a protein.

In experiment [1] the target is T1, MALT1 (Ig1-Ig2) (human, UniProt Q9UDY8 125-309).
T1 construct: domain: Ig1-Ig2; also called Ig1-Ig2 construct of MALT1; MALT1 (207-309)
T1 sequence (looked up): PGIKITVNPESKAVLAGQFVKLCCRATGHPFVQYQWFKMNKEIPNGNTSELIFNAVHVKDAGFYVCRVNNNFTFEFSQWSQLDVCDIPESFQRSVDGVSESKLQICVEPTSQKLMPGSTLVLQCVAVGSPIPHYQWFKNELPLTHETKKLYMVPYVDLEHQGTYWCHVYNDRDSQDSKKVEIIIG
Briefly: His pull-down after co-expression in E. coli, Coomassie-stained SDS-PAGE. How it is done: The inventors designed experiments to determine whether there were additional MALT1-binding sites on BCL10 at its largely unstructured C-terminus. The C-terminal region was divided into two halves and MALT1 pull-down studies were performed. […] Of note, unlike the interaction between BCL10 CARD and MALT1 death domain (DD) in the filamentous form, the interaction between BCL10 C-terminal region and MALT1 Ig1-Ig2 is monomeric as assessed by gel filtration chromatography of the complex.

Experiment [2] has as its target MALT1 (of the lymphoma cell lysates, detected with anti-MALT1) (UniProt Q9UDY8). Briefly: anti-Flag co-immunoprecipitation from Raji cells, anti-MALT1 blot.
The target in experiment [3] is T1, MALT1 (Ig1-Ig2). Briefly: His pull-down, SDS-PAGE.

B1: His-tagged BCL10 (165-233) (protein, not shown: small tags and cut ends)
chain: FFSTNSSLNLPVLEVGRTENTIFSSTTLPRPGDPGAPPLPPDLQLEEEGTCANSSEMFLPLRSRTVSRQ
In the case of B1, in the experiment with MALT1 (Ig1-Ig2) [1], the binding entry was “binds”.

B2: Flag-BCL10^WT (protein, not shown: small tags and cut ends)
chain: MEPTAPSLTEEDLTEVKKDALENLRVYLCEKIIAERHFDHLRAKKILSREDTEEISCRTSSRKRAGKLLDYLQENPKGLDTLVESIRREKTQNFLIQKITDEVLKLRNIKLEHLKGLKCSSCEPFPDGATNNLSRSNSDESNFSEKLRASTVMYHPEGESSTTPFFSTNSSLNLPVLEVGRTENTIFSSTTLPRPGDPGAPPLPPDLQLEEEGTCANSSEMFLPLRSRTVSRQ
Consider B2, for which the binding result in experiment [2] is “binds”.

B3: Flag-BCL10^R58Q (protein, not shown: small tags and cut ends)
chain: B2 chain with R58Q
On to B3, for which the binding entry in experiment [2] was “binds”.

B4: Flag-BCL10^R87Q (protein, not shown: small tags and cut ends)
chain: B2 chain with R87Q
Take B4: in experiment [2], the binding result is recorded as “binds”.

For the molecule FFSTNSSLNLPVLEVGRTENTIFSSTTLPRPGDPGAPPLPPDLQ (peptide, not shown: small tags and cut ends) [His-tagged BCL10 construct containing residues 165-208], in the experiment with MALT1 (Ig1-Ig2) [3], the binding entry is recorded as “binds”.
